From paper doi:10.1101/2024.01.16.575832
Read-outs that look alike come from different tables or passages of the source. No constants are given. Whether binding was seen depends on the method and setting. Some binding calls cover weakened binding; strength is not graded here.

T1: full-length Ply2638A endolysin (PlyFL) (Staphylococcus pseudintermedius phage φ2638A) (UniProt Q4ZD58)
T1 sequence: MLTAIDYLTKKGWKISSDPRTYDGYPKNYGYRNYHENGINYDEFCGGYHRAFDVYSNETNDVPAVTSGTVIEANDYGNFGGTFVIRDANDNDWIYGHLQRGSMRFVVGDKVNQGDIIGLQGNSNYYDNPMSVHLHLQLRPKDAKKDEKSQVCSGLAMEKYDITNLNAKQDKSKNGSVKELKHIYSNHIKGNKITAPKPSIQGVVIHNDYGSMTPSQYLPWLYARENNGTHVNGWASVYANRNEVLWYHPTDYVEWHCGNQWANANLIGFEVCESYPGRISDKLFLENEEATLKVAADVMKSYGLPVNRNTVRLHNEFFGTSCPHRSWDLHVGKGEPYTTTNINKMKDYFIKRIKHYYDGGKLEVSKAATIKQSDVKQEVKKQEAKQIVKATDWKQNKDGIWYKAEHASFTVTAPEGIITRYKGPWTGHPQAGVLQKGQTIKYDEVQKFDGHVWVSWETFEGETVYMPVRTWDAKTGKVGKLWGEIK


Experiments:
[1] = target: T1, full-length Ply2638A endolysin (PlyFL) (Staphylococcus pseudintermedius phage φ2638A); assay: SPR
[2] = target: Ply2638A short variant isoform (PlySV) (Staphylococcus pseudintermedius phage φ2638A) (UniProt Q4ZD58); assay: SEC-MALS
[3] = target: Ply2638A short variant isoform (PlySV) (Staphylococcus pseudintermedius phage φ2638A) (UniProt Q4ZD58); assay: SEC-MALS; remark: listed apart in the source
[4] = target: T1, full-length Ply2638A endolysin (PlyFL) (Staphylococcus pseudintermedius phage φ2638A); assay: SEC

binding [1]	binding [2]	binding [3]	binding [4]	Molecule
no binding (tested: 5 μM)				M23 peptidase domain of Ply2638A (M23-2638A) (from UniProt Q4ZD58 1-174) (domain or fragment)
no binding (tested: 5 μM)				SH3b cell wall binding domain of Ply2638A (CBD) (from UniProt Q4ZD58 393-486) (domain or fragment)
binds	no binding (tested: 1 mg/mL)	no binding (tested: 1 mg/mL)	binds	Ply2638A short variant isoform (PlySV) (domain or fragment, UniProt Q4ZD58 180-486) LKHIYSNHIKGNKITAPKPSIQGVVIHNDYGSMTPSQYLPWLYARENNGTHVNGWASVYANRNEVLWYHPTDYVEWHCGNQWANANLIGFEVCESYPGRISDKLFLENEEATLKVAADVMKSYGLPVNRNTVRLHNEFFGTSCPHRSWDLHVGKGEPYTTTNINKMKDYFIKRIKHYYDGGKLEVSKAATIKQSDVKQEVKKQEAKQIVKATDWKQNKDGIWYKAEHASFTVTAPEGIITRYKGPWTGHPQAGVLQKGQTIKYDEVQKFDGHVWVSWETFEGETVYMPVRTWDAKTGKVGKLWGEIK
